± gives the standard deviation of the averaged measurements. Only a part is listed here, and it is no random draw.
Compound: Nc1ncnc2c1ncn2[C@@H]1O[C@H](COP(=O)(O)OP(=O)(O)OP(=O)(O)O)[C@@H](O)[C@H]1O [adenosine triphosphate]
Assay: NP40-soluble protein abundance relative to vehicle (solubility fold change) (ratio); higher = more soluble protein in presence of ATP
In short: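 Data come from three independent experiments in which Dounce-homogenised Jurkat crude lysate was treated at eight concentrations from 0.1 to 10 mM. Treatment ran 10 min at room temperature and then 3 min at 37 °C, after which 0.8% NP40 and benzonase were added for 60 min at 4 °C before ultracentrifugation. The supernatant underwent TMT labelling and LC-MS/MS, and vsn-normalised intensities were expressed as fold change against the detergent-processed vehicle in each replicate.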

Sequences of proteins named here, by UniProt entry; tags and fusion partners are left off. A change or cut given only in a name is not applied to a line headed by its entry.
UniProt Q96CB8, whole entry: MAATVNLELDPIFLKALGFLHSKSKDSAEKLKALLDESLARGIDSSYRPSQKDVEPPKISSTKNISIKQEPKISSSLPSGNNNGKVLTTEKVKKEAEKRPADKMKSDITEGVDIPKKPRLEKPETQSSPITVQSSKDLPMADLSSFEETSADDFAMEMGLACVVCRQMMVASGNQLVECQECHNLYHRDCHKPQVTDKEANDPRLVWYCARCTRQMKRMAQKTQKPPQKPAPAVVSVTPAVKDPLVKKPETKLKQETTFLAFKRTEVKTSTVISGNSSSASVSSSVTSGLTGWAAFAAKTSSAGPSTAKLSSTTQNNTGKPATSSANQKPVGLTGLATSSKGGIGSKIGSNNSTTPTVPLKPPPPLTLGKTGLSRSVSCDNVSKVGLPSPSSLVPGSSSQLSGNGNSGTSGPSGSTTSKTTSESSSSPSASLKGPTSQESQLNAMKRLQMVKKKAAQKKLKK
UniProt Q96NL6: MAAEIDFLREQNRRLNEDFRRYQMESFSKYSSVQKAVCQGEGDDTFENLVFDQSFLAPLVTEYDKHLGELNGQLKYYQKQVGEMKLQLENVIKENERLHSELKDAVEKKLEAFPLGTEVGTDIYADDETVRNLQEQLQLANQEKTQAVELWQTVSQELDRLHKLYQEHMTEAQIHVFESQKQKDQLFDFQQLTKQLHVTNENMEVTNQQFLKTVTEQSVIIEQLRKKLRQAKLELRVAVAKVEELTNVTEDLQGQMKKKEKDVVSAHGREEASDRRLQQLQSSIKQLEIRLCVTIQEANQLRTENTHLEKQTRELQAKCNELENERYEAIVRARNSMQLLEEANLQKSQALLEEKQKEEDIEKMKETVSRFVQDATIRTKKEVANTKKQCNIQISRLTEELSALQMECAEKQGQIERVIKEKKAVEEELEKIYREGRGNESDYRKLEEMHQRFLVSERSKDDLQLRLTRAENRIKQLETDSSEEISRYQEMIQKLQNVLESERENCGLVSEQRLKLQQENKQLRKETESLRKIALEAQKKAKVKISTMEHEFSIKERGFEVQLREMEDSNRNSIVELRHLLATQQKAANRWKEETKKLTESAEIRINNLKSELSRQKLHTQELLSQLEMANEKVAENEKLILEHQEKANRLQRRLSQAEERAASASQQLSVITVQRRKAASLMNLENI
UniProt Q96SB3: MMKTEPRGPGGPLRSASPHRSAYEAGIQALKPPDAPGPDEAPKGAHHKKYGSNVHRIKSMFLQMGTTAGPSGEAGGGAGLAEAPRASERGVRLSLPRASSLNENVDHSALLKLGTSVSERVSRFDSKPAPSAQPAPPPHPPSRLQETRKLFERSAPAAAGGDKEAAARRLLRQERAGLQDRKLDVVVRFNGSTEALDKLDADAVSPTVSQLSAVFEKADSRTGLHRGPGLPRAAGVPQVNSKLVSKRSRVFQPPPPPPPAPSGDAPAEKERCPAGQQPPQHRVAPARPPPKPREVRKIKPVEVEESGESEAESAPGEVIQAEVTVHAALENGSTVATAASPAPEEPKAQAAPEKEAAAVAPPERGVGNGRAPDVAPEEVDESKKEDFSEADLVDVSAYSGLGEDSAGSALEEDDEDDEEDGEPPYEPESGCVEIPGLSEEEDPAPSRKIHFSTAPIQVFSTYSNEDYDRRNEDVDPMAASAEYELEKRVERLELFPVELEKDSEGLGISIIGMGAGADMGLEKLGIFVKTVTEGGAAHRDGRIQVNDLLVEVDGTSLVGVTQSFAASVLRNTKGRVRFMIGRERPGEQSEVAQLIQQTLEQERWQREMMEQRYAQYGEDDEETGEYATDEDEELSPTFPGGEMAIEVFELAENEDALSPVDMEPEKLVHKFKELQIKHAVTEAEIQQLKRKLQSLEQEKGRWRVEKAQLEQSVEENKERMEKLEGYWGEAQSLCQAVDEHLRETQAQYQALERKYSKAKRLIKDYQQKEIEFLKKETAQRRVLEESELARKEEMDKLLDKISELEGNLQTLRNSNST
UniProt Q96C19: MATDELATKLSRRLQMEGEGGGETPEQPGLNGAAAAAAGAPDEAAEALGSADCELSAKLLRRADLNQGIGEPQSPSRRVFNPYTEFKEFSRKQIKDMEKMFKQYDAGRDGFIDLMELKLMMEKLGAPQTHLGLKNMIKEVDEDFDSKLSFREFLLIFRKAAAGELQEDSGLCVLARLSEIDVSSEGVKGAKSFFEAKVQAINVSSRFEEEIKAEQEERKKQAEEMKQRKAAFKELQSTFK
UniProt Q96RG2: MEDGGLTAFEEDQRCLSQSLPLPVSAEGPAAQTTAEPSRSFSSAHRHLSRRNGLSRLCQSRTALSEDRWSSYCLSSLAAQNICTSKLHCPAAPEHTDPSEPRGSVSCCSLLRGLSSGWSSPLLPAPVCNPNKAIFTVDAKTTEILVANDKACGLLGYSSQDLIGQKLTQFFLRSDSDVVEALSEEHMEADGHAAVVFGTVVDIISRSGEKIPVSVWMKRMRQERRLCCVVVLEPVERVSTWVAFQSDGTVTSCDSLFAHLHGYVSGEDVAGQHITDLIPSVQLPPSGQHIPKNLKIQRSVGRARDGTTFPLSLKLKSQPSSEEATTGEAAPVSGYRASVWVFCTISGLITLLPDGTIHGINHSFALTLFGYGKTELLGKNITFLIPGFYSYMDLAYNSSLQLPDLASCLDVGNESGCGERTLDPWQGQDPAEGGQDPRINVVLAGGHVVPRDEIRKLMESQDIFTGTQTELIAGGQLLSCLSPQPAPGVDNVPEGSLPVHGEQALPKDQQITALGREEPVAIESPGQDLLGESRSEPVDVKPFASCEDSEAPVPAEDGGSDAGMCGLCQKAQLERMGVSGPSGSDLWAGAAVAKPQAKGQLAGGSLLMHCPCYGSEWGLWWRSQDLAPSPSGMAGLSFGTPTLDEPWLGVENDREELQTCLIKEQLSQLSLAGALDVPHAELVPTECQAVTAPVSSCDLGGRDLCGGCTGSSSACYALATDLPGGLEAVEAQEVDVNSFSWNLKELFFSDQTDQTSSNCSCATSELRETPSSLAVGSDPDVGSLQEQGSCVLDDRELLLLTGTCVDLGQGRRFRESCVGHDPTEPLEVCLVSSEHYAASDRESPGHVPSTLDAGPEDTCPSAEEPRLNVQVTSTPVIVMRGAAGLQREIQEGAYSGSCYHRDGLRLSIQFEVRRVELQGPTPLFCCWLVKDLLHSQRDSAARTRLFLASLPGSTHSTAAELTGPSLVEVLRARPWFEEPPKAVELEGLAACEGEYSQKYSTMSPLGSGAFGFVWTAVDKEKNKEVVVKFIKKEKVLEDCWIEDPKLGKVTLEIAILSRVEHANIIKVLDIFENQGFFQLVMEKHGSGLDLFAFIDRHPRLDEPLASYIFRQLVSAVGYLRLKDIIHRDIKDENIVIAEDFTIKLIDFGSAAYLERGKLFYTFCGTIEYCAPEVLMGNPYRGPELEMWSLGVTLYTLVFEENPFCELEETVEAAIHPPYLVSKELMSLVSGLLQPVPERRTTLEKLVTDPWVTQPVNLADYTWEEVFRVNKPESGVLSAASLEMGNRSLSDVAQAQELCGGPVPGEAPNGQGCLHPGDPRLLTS
UniProt Q96JK2, whole entry: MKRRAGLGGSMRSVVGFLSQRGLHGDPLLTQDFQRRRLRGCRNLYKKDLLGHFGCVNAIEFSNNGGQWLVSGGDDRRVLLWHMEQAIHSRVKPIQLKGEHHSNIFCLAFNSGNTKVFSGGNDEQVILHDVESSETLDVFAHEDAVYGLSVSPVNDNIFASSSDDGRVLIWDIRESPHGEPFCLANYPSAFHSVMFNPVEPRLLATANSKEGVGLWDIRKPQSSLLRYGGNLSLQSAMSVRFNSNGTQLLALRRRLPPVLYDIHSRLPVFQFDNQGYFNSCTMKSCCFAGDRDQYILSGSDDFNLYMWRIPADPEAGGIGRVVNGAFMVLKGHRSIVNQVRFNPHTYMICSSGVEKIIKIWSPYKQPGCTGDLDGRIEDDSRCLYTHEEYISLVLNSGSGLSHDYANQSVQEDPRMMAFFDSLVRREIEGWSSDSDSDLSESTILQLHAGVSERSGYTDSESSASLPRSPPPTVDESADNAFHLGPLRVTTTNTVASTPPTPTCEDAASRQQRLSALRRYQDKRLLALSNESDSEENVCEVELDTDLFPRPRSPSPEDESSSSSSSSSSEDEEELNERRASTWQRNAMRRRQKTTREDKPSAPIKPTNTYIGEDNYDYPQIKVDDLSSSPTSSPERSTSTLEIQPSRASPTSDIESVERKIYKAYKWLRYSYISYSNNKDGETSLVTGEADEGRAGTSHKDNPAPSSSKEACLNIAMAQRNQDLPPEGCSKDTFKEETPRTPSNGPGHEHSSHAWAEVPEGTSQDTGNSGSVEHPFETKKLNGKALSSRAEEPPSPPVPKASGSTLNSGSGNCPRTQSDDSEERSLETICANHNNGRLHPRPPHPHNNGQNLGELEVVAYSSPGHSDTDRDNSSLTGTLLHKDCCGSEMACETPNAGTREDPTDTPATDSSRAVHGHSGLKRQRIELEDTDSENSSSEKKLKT
UniProt Q96GX5: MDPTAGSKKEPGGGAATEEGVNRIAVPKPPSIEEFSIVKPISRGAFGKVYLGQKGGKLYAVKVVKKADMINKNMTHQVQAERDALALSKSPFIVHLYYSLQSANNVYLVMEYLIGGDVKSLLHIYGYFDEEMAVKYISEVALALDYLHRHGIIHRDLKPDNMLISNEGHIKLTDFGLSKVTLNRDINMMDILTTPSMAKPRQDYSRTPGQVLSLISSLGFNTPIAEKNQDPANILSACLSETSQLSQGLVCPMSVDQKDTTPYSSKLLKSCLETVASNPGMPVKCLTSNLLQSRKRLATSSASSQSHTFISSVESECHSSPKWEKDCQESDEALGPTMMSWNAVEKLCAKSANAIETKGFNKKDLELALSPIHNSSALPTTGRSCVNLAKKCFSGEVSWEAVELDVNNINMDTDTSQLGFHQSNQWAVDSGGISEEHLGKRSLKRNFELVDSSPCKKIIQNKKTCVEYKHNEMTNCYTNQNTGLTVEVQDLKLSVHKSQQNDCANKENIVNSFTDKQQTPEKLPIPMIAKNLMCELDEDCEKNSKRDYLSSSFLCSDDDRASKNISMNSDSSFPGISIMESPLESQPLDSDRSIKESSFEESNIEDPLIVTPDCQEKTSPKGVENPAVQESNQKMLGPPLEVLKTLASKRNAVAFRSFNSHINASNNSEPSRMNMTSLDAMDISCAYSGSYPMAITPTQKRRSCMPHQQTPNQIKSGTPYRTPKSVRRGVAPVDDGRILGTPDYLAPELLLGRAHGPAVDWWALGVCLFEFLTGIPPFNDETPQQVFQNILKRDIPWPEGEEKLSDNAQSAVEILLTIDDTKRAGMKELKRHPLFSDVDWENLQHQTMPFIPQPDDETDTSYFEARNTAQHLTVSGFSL

Target	NP40-soluble protein abundance (concentration: 1mM)	NP40-soluble protein abundance (concentration: 2mM)	NP40-soluble protein abundance (concentration: 4mM)	NP40-soluble protein abundance (concentration: 6mM)	NP40-soluble protein abundance (concentration: 8mM)	NP40-soluble protein abundance (concentration: 10mM)
UniProt Q96CB8 and related entries	1.01 ± 0.059	1.05 ± 0.054	1.12 ± 0.046	1.21 ± 0.15	1.23 ± 0.056	1.28 ± 0.12
UniProt Q96T37-3|A0A087WWP4|Q96T37 and related entries	1.05 ± 0.034	1.101 ± 0.011	1.12 ± 0.034	1.16 ± 0.04	1.13 ± 0.046	1.205 ± 0.0098
SCLT1 (UniProt Q96NL6)	0.94 ± 0.029	0.934 ± 0.073	0.91 ± 0.046	0.913 ± 0.025	0.979 ± 0.015	0.937 ± 0.058
UniProt Q96SB3 and related entries	0.917 ± 0.12	0.931 ± 0.088	1.05 ± 0.069	1.19 ± 0.029	1.19 ± 0.12	1.39 ± 0.15
UniProt Q96L91 and related entries	1.04 ± 0.039	1.05 ± 0.088	1.06 ± 0.082	1.08 ± 0.14	1.11 ± 0.097	1.13 ± 0.1
EFHD2 (UniProt Q96C19)	0.931 ± 0.052	0.914 ± 0.018	0.911 ± 0.029	0.9471 ± 0.0072	0.897 ± 0.021	0.889 ± 0.023
UniProt Q96RG2 and related entries	0.968 ± 0.025	0.981 ± 0.051	0.966 ± 0.027	0.9639 ± 0.0075	0.948 ± 0.058	0.949 ± 0.027
UniProt Q96JK2 and related entries	0.9454 ± 0.0066	0.973 ± 0.033	0.964 ± 0.038	0.951 ± 0.012	0.951 ± 0.015	0.9691 ± 0.0092
UniProt Q96GX5 and related entries	0.997 ± 0.069	0.962 ± 0.045	0.975 ± 0.065	1.02 ± 0.078	0.98 ± 0.037	0.947 ± 0.043

Reference: the supplement of paper PMC6411743
